The list shows a part of the results.
Compound: Cc1sc2c(c1C)C(c1ccc(Cl)cc1)=N[C@@H](CC(=O)OC(C)(C)C)c1nnc(C)n1-2
Assay: log2 fold change, soluble protein after heating vs DMSO (PISA); higher = thermal stabilisation; K562 lysate, 10 uM; active = over 0.2 and 3.5 SD of the protein, either way, in both replicates (recomputed)
In short: (§1)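 Thermal stability, expressed as log-two fold change relative to solvent controls, is given from duplicates. Crude K562 extract in PBS pH 7.4 with 1 mM MgCl2, at 1 mg/mL protein, was treated with 10 μM compound for 30 min and heated in aliquots for 3 min across 48°C-58°C. After pooling, adjustment to 0.5% NP-40 at 4°C and centrifugation at 21,000xg for 90 min, supernatant protein was measured by TMTpro 16plex LC-MS/MS with channel sums equalised.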

The chains behind the UniProt entries cited, without tags or fusion partners. Where a name states a change or a piece, a line headed by the entry shows the natural chain unless it says otherwise.
UniProt O60779: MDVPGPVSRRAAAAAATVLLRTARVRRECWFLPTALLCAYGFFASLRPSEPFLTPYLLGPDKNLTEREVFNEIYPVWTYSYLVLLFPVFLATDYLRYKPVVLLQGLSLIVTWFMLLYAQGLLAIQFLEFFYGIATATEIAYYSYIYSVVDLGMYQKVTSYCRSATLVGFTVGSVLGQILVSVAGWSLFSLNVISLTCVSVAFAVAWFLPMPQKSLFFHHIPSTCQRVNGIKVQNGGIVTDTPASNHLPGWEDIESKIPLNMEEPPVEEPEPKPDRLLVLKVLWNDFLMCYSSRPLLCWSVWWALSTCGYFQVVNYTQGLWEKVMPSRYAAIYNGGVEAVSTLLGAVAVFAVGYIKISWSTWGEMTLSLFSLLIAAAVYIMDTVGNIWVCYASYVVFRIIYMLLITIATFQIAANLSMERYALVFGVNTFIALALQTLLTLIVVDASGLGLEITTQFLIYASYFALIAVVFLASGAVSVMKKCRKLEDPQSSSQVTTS
UniProt Q12874: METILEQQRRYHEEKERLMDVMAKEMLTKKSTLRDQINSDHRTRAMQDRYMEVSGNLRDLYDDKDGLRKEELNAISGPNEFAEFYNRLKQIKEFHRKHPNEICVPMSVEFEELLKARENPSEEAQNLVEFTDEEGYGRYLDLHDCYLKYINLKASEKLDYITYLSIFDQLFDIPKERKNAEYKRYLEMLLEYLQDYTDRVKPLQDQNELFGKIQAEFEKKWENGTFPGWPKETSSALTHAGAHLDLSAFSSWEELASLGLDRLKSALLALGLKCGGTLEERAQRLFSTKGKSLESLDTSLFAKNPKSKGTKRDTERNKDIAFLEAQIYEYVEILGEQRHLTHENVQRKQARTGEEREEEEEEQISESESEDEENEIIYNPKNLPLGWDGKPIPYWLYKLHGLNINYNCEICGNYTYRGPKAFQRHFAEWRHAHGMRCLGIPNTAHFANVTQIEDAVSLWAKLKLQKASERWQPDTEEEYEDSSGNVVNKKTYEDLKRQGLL
UniProt Q9Y3L3: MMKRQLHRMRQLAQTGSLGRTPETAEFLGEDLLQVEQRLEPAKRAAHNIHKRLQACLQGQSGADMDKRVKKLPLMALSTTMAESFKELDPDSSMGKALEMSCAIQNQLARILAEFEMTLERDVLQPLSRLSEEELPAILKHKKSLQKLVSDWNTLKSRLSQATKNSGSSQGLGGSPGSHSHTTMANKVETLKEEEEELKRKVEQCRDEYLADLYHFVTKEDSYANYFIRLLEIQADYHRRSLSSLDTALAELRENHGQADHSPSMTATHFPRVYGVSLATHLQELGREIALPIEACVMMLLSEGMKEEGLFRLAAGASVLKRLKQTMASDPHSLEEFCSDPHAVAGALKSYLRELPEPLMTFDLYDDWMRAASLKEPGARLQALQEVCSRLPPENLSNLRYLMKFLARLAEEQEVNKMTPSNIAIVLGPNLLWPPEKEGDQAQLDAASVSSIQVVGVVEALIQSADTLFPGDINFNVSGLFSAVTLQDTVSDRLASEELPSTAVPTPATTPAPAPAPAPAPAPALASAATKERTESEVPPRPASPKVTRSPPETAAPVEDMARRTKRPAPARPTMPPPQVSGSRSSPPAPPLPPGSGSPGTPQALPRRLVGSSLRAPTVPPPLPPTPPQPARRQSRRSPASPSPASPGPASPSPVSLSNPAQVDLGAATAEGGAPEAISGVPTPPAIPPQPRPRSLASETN
UniProt P55822: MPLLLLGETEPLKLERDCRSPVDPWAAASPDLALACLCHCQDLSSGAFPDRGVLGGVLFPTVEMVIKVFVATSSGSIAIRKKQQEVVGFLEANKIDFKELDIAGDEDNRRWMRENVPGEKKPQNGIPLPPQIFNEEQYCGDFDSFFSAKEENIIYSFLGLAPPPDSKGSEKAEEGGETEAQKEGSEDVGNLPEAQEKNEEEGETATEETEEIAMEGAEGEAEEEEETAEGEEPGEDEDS
UniProt P08697: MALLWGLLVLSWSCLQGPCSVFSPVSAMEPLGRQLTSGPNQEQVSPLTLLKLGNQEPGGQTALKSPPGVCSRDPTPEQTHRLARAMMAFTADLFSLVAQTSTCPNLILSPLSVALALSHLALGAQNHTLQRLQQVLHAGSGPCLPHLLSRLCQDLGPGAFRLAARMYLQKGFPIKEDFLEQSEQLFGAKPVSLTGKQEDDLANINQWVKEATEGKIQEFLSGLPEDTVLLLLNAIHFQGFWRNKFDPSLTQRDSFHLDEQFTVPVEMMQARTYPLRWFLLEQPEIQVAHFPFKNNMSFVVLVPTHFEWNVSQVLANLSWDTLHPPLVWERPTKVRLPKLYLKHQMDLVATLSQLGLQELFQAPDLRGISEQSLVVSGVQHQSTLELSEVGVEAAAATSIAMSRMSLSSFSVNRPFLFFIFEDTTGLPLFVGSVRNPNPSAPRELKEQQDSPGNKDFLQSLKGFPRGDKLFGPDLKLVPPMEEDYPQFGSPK
UniProt Q86XK3: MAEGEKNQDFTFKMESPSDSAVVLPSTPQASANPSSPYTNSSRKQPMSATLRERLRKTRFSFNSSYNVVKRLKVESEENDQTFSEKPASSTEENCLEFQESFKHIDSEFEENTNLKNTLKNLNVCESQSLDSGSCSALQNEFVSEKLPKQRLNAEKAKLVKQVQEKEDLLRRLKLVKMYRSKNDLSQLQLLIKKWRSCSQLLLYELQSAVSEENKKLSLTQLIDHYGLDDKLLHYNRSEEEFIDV
UniProt Q9BYW2: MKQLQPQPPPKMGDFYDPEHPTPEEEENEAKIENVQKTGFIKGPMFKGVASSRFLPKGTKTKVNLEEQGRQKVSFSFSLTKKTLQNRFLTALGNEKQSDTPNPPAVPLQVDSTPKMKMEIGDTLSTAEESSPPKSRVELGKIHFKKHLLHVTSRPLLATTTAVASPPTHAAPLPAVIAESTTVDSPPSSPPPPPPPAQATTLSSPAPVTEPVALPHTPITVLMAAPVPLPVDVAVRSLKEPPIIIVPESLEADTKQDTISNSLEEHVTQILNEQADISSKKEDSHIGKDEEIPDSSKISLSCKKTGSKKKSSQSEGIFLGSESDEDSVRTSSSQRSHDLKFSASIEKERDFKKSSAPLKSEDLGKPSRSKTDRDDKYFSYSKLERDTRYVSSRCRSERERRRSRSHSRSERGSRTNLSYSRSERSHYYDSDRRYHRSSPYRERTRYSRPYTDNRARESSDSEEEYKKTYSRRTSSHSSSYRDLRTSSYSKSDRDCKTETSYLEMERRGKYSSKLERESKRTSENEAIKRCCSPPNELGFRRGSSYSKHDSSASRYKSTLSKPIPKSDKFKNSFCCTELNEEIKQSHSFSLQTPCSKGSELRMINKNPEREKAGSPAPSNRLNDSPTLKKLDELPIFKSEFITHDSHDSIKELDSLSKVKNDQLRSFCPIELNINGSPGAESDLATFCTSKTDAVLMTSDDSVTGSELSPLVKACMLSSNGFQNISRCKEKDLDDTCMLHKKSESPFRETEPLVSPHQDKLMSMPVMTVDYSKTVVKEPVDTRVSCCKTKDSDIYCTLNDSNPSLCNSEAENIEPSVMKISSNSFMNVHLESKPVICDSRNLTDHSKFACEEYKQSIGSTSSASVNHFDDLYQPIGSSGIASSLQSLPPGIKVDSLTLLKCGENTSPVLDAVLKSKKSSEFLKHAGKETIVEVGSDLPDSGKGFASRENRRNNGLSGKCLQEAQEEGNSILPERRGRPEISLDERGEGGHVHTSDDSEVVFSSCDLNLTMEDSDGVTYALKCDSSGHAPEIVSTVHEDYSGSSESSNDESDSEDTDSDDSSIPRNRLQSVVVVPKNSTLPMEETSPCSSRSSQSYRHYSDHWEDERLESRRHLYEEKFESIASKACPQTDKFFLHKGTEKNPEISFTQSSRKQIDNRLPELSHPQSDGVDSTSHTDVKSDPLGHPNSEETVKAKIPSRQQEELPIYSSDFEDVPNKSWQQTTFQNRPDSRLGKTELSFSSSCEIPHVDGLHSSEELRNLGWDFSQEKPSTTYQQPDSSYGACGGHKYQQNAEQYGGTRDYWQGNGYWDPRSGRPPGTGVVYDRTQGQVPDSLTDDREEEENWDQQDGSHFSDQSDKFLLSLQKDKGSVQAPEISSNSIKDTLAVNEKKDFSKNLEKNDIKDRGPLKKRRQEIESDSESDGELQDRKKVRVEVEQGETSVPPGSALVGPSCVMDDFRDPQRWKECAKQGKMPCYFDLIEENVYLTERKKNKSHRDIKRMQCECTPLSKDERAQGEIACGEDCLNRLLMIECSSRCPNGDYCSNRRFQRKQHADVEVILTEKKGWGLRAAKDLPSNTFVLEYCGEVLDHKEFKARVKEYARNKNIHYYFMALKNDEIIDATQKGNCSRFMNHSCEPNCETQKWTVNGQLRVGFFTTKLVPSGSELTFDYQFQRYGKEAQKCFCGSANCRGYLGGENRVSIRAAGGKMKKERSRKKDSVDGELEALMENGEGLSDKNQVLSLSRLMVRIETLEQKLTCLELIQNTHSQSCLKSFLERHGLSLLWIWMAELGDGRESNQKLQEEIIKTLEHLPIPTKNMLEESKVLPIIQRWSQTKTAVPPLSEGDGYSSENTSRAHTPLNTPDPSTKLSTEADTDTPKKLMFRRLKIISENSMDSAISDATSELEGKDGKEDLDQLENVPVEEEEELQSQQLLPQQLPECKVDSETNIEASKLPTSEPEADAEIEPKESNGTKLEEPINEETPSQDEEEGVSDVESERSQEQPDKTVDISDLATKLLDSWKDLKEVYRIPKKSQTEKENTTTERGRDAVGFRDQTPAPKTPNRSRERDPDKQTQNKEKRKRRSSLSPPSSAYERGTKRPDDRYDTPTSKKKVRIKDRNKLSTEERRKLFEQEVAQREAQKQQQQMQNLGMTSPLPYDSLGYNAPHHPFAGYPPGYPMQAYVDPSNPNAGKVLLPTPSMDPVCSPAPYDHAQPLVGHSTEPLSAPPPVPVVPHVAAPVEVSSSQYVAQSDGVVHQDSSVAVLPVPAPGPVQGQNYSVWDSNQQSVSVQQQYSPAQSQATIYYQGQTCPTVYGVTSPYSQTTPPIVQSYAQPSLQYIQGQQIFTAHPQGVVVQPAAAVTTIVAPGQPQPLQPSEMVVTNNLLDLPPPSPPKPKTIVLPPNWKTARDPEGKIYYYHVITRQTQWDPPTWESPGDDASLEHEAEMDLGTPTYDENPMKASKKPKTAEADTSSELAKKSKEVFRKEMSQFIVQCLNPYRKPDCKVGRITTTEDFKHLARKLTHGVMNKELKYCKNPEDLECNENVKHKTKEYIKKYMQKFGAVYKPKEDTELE
UniProt Q6PI26: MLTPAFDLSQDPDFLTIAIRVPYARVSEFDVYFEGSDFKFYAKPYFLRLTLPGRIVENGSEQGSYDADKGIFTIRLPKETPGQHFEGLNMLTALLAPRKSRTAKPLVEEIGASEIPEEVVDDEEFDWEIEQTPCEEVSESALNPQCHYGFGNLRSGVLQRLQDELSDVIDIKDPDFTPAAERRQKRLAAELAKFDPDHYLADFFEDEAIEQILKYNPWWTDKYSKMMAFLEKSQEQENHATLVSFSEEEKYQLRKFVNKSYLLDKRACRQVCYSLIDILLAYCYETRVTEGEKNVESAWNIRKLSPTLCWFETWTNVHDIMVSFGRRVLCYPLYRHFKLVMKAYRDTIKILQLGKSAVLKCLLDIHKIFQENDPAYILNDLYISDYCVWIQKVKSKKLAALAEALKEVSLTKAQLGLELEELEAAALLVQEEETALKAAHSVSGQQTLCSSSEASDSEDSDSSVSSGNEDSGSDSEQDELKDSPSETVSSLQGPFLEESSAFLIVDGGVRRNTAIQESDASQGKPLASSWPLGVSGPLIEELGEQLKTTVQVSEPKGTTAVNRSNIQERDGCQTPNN

Target | log2 fold change
SERAC1 (UniProt Q96JX3) | inactive: 0.11
SERF2 (UniProt P84101) | inactive: -0.126
SH3GL1 (UniProt Q99961) | inactive: 0.012
SLC19A2 (UniProt O60779) | inactive: -0.01
SH3BP5L (UniProt Q7L8J4) | inactive: 0.01
SLC20A2 (UniProt Q08357) | inactive: -0.066
SERINC1 (UniProt Q9NRX5) | inactive: -0.098
SH3GL3 isoform 3 (UniProt Q99963) | inactive: -0.169
SERBP1 isoform 3 (UniProt Q8NC51) | inactive: 0.07
SF3A3 (UniProt Q12874) | inactive: -0.01

Fetched one by one from above:
Target | log2 fold change
SERBP1 isoform 3 (UniProt Q8NC51) | inactive: 0.07
SERF2 (UniProt P84101) | inactive: -0.126

Compound: c1ccc([C@@H]2C[C@H]2NC2CCNCC2)cc1
Assay: as above
In short: as §1

Target | log2 fold change
SH3BP1 (UniProt Q9Y3L3) | inactive: 0
SIX5 (UniProt Q8N196) | inactive: 0.209
SH2B1 (UniProt Q9NRF2) | inactive: 0.081
SIPA1L1 (UniProt O43166) | inactive: -0.038
SH3BGR (UniProt P55822) | inactive: -0.014
SIAH2 (UniProt O43255) | inactive: 0.026
SERPINF2 (UniProt P08697) | inactive: 0.057
SLAIN2 (UniProt Q9P270) | inactive: -0.016
SFR1 isoform 2 (UniProt Q86XK3) | inactive: 0.072
SGPL1 (UniProt O95470) | inactive: -0.061
SETD2 (UniProt Q9BYW2) | inactive: -0.061
SIMC1 (UniProt Q8NDZ2) | inactive: -0.121
SHQ1 (UniProt Q6PI26) | inactive: 0.115

Source: the supplement of paper PMC10849652
